According to patent publication US20070161665A1, “Cancer treatment method” (priority 2003, published 2007):

Tested on: HN5 cells
Test: Roche Cell Death ELISAPlus apoptosis assay in HN5 cells (median effect and sensitization ratio analysis)
Assay type: cell-based
Settings: HN5, 24 h
Description: HN5 cells are LICR-LON-HN5 head and neck carcinoma cells, which were a gift from the Institute of Cancer Research, Surrey, U.K.
Cell lines were grown in RPMI-1640 supplemented with 25 mM HEPES, 10 mM glutamine and 10% fetal bovine serum and maintained at 37° C. and 5% CO2 in a humid incubator. Assays were performed in 96 well microtiter plates with optimum seeding densities for each cell line.
Apoptosis was measured using the Roche Cell Death ELISA^Plus kit (catalog 1 774 425) which detects fragmented nucleosomal DNA that is generated during apoptosis.
Synergistic interaction between compounds was analyzed by the median effect method described by Chou and Talalay (Adv. Enzyme Regul. 22: 27-55, 1984). Briefly, if the two compounds fit the mutually exclusive model of Chou, one calculates the combination index (CI) using the formula CI=((D)1/(Dx)1)+((D)2/(Dx)2) (1) where (D)1 is the concentration of drug 1 in the combination that gives “x” percent apoptosis, (D)2 is the same for drug 2, and (Dx)1 and (Dx)2 are the concentrations of drug 1 or 2 that give “x” percent apoptosis when used alone. (D)1 and (D)2 are known from the composition of the combination and (Dx)1 and (Dx)2 can be calculated from the equation Dx=Dm*[fa/(1−fa)]^1/m (2) where Dm is the concentration of drug giving 50% effect, fa is the fraction affected, and m is the slope from the median effect plot of log (fa/fu) where fu is the fraction unaffected versus log (D). A CI less than 1 indicates synergy, equal to 1 indicates additivity and greater than 1 antagonism.
Sensitization is measured as the ratio between observed and expected apoptosis or caspase activation from a combination of AKT kinase inhibitor and EGFR/erb inhibitor. The expected level of activity (Ae) is calculated by Ae=1−((1−A1)*(1−A2)) (3) where A1 and A2 are the activities of drugs 1 and 2 alone at the concentration used in the combination (Harvey, R. J., J. Theor. Biol. 74: 411-437, 1978).

| SMILES | B (median effect plot) (drug alone (Table 1)) | M (slope of median effect plot) (drug alone (Table 1)) | B (median effect plot) (drug alone (Table 3)) | M (slope of median effect plot) (drug alone (Table 3)) |
| --- | --- | --- | --- | --- |
| O=c1cc(N2CCOCC2)oc2c(-c3ccccc3)cccc12 [LY294002, 2-(4-morpholinyl)-8-phenyl-4H-1-benzopyran-4-one, reference compound] | −2.433 | 1.072 | −5.379 | 2.573 |
| CS(=O)(=O)CCNCc1ccc(-c2ccc3ncnc(Nc4ccc(OCc5cccc(F)c5)c(Br)c4)c3c2)o1 [GW589522, (4-(3-Fluoro-benzyloxy)-3-bromophenyl)-(6-(5-((2-methanesulphonyl-ethylamino)-methyl)-furan-2-yl)quinazolin-4-yl)-amine] |  |  | −3.584 | 2.983 |
| CS(=O)(=O)CCNCc1ccc(-c2ccc3ncnc(Nc4ccc(OCc5cccc(F)c5)c(Cl)c4)c3c2)o1.Cc1ccc(S(=O)(=O)O)cc1.Cc1ccc(S(=O)(=O)O)cc1.O [GW572016, N-{3-Chloro-4-[(3-fluorobenzyl)oxy]phenyl}-6-[5-({[2-(methanesulphonyl)ethyl]amino}methyl)-2-furyl]-4-quinazolinamine ditosylate monohydrate] | −1.444 | 1.427 |  |  |
